# Some results were stated once for a whole list of compounds, not compound by compound.
# Tested on: Q-biotype strain of Bemisia tabaci (Neonicotinoid resistant)
# Test: Control of neonicotinoid resistant tobacco whitefly (Bemisia tabaci), spray bioassays on cotton seedlings / cotton leaf discs
# Format: in vivo
# Settings: for control of the Q-biotype (Neonicotinoid resistant) strain of Bemisia tabaci: 200 ppm; for resistance factor: concentration for set mortality (i.e. 80%) in Q-biotype resistant strain divided by that in susceptible Bemisia tabaci strain
SMILES,control of the Q-biotype (Neonicotinoid resistant) strain of Bemisia tabaci,resistance factor
CSCCN1C2CCC1CC(C#N)(c1cncc(F)c1)C2 (stereo not drawn) [Compound 3.044],at least 80%,≤ 20
COC(=O)C(C)N1C2CCC1CC(C#N)(c1cncc(F)c1)C2 (stereo not drawn) [Compound 3.049],at least 80%,≤ 20
C#CC(C)N1C2C=CC1CC(C#N)(c1cncc(Cl)c1)C2 (stereo not drawn) [Compound 4.017],at least 80%,≤ 20
C#CCCN1C2C=CC1CC(C#N)(c1cncc(Cl)c1)C2 (stereo not drawn) [Compound 4.019],at least 80%,≤ 20
N#CC1(c2cncc(Cl)c2)CC2C=CC(C1)N2CCCC(F)(F)F (stereo not drawn) [Compound 4.050],at least 80%,≤ 20
C=C(C)CN1C2C=CC1CC(C#N)(c1cncc(Cl)c1)C2 (stereo not drawn) [Compound 4.052],at least 80%,≤ 20
N#CC1(c2cncc(Cl)c2)CC2C=CC(C1)N2CCF (stereo not drawn) [Compound 4.104],at least 80%,≤ 20
C#CCCN1C2C=CC1CC(C#N)(c1cncc(Br)c1)C2 (stereo not drawn) [Compound 5.019],at least 80%,≤ 20
CSCCN1C2C=CC1CC(C#N)(c1cncc(Br)c1)C2 (stereo not drawn) [Compound 5.044],at least 80%,≤ 20
C=C(F)CN1C2C=CC1CC(C#N)(c1cncc(Br)c1)C2 (stereo not drawn) [Compound 5.063],at least 80%,≤ 20
N#CC1(c2cncc(Br)c2)CC2C=CC(C1)N2C1CC1 (stereo not drawn) [Compound 5.071],at least 80%,≤ 20
CCN1C2C=CC1CC(C#N)(c1cncc(Br)c1)C2 (stereo not drawn) [Compound 5.072],at least 80%,≤ 20
CN1C2C=CC1CC(C#N)(c1cncc(Br)c1)C2 (stereo not drawn) [Compound 5.223],at least 80%,≤ 20
N#CC1(c2cncc(Br)c2)CC2C=CC(C1)N2CC1CCCO1 (stereo not drawn) [Compound 5.299],at least 80%,≤ 20
N#CC1(c2cncc(Br)c2)CC2C=CC(C1)N2C1CCOCC1 (stereo not drawn) [Compound 5.321],at least 80%,≤ 20
C#CC(C)N1C2C=CC1CC(C#N)(c1cncc(F)c1)C2 (stereo not drawn) [Compound 6.017],at least 80%,≤ 20
C#CCN1C2C=CC1CC(C#N)(c1cncc(F)c1)C2 (stereo not drawn) [Compound 6.042],at least 80%,≤ 20
N#CC1(c2cncc(F)c2)CC2C=CC(C1)N2CC(F)F (stereo not drawn) [Compound 6.043],at least 80%,≤ 20
CSCCN1C2C=CC1CC(C#N)(c1cncc(F)c1)C2 (stereo not drawn) [Compound 6.044],at least 80%,≤ 20
C=C(C)CN1C2C=CC1CC(C#N)(c1cncc(F)c1)C2 (stereo not drawn) [Compound 6.052],at least 80%,≤ 20
N#CC1(c2cncc(F)c2)CC2C=CC(C1)N2C1CC1 (stereo not drawn) [Compound 6.071],at least 80%,≤ 20
CCN1C2C=CC1CC(C#N)(c1cncc(F)c1)C2 (stereo not drawn) [Compound 6.072],at least 80%,≤ 20
N#CC1(c2cncc(I)c2)CC2C=CC(C1)N2CC(F)(F)F (stereo not drawn) [Compound 8.003],at least 80%,≤ 20
C=CCN1C2C=CC1CC(C#N)(c1cncc(I)c1)C2 (stereo not drawn) [Compound 8.082],at least 80%,≤ 20

# From patent US20160050930A1, “METHODS OF CONTROLLING NEONICOTINOID RESISTANT PESTS” (SYNGENTA PARTICIPATIONS AG, priority 2013, published 2016)
